Measured values as given in article PMC3305387.
Results are given in words; binding and its absence hold for the method and conditions named. Binding seen in cells or lysates may run through a third protein. A yes stands for co-enrichment or nearness to the bait. Other partners may have been found.

Chains of the proteins cited; added tags and fusions are not shown.
UniProt Q80U70: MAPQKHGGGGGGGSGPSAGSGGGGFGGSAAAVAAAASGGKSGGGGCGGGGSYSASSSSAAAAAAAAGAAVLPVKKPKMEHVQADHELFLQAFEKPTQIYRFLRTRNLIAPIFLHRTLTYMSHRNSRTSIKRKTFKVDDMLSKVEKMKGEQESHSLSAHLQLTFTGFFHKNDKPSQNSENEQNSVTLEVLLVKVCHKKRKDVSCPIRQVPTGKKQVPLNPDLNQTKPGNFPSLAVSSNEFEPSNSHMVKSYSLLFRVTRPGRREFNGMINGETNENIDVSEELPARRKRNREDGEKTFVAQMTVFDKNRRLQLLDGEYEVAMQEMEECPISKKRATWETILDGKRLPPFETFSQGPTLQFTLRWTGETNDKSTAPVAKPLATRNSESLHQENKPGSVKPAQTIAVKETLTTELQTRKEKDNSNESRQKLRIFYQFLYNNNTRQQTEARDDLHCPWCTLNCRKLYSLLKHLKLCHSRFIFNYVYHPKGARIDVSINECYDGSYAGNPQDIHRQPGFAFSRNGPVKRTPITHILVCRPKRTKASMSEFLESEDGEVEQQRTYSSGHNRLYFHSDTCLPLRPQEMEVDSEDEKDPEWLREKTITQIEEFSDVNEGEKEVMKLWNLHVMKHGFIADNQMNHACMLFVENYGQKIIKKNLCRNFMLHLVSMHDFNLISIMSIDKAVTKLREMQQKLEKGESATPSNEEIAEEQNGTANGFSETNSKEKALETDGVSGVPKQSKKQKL
UniProt Q02395: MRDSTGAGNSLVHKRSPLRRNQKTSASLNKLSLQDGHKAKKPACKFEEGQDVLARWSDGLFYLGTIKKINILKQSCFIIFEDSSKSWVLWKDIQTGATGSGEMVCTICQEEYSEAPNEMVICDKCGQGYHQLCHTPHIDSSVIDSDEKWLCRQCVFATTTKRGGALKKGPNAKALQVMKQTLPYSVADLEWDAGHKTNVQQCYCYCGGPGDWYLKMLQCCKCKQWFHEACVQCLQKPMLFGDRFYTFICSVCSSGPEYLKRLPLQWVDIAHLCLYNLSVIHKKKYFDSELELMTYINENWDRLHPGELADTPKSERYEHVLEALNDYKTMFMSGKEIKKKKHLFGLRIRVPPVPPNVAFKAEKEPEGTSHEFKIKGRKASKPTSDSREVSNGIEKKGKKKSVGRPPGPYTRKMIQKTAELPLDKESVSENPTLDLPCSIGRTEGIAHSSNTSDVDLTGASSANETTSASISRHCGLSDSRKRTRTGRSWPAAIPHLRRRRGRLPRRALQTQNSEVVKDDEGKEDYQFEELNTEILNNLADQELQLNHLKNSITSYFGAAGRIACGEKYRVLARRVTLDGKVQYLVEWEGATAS

Biological target: Suz12-TAP (mouse) (UniProt Q80U70)
Test: affinity purification with mass spectrometry; Suz12-TAP tandem affinity purified from Suz12^Suz12TAP/+ ESCs; co-purified proteins identified by mass spectrometry

- binding: binds
Substance: Pcl2 (from UniProt Q02395 1-593)
